Test results from US20260250410A1, “ANTIBODY AND USE THEREOF” (SICHUAN HUIYU PHARMACEUTICAL CO., LTD., priority 2022, published 2026).
Some of these results come from one statement about several compounds together.

B1: SB1: anti-CDCP1 antibody by single B cell technique; VH SEQ ID NO: 271, VL SEQ ID NO: 321 (antibody, V domains shown)
VH: QVQLQQSGPDLVRPGESVKISCKGSGYTFTDHAIHWVRQSHAKSLEWIGVISFSYDNTKYNQNFKGKATMTVDKSSNTAYMELARLTSEDSAIYYCARDCYGSNRGYFDYWGQGTTLTVSS
VL: DIRMTQSPSSMYASLGERVTITCKASQDINRFLSWFLQRPGKAPKTLIYRANNLVEGVPSRFSGSGSGQDYSLIISNLEYEDMGIYYCLQYDEFPRTFGGGTKLEIK
modifications: SB1 heavy chain variable region; SB1 light chain variable region
B2: SB4: anti-CDCP1 antibody by single B cell technique; VH SEQ ID NO: 274, VL SEQ ID NO: 324 (antibody, V domains shown)
VH: QVQLQQSGAELVRPGTSVKISCKASGYTFTNYWLGWVKQRPGHGLEWIGDNYPGDNYRNFNEKFKGKATLTTDASSSTAYLQLSSLISEDSAVYFCTRSGGSRYYTMDYWGQGTSVTVSS
VL: DIVMTQAAFSNPVTLGTSASISCRSSRSLLHNNGITYLYWYLQKPGQSPQLLIYQMSNLASGVPDRFHSSGSGTDFTLSISRVEAEDVGVYYCAQNLDLPYTFGGGTKLEIK
modifications: SB4 heavy chain variable region; SB4 light chain variable region
B3: SB5: anti-CDCP1 antibody by single B cell technique; VH SEQ ID NO: 275, VL SEQ ID NO: 325 (antibody, V domains shown)
VH: QVQLRESGPGLVAPSQSLSITCTVSGFSLTDFGVNWVRQPPGKGLEWLGIIWANGRIEYNSALKSRLSISKDNSRSQVFLKLNSLQTDDTARYYCARDHDYDVEAMDYWGQGTSVTVSA
VL: QIVLTQSPAIKSASPGEKVTMTCSASSSVIYMHWYQQKSGSSPKRWIYDTSKLASGVPVRFSGSGSGTSYSLTISTMEAEDAATYYCQQWSSYPPTFGGGTKVEIK
modifications: SB5 heavy chain variable region; SB5 light chain variable region
B4: SB6: anti-CDCP1 antibody by single B cell technique; VH SEQ ID NO: 276, VL SEQ ID NO: 326 (antibody, V domains shown)
VH: QGQMQQSGAELVKPGASVKLSCKTSGFTFNSSYITWLKQKPGQSLEWIAWIFAGTGGTYYNEKFTDKAQLTVDTTSSTAYMQFSSLTTEDSAIYYCARHGLGYDYWGQGTTLTVSS
VL: SIVMTQTPKFLLVSAGDRVTITCKASQSVNTDVAWYQQKSGQSPKLLIYSASNRYTGVPDRFTGSGYGTDFTFTISTVQAEDLAVYFCQQDHSSPPWTFGGGTKLEIK
modifications: SB6 heavy chain variable region; SB6 light chain variable region
B5: SB7: anti-CDCP1 antibody by single B cell technique; VH SEQ ID NO: 277, VL SEQ ID NO: 327 (antibody, V domains shown)
VH: QVQLQQSGPELVSPGESVKISCKGSGYTFTDYAVHWVKQSHSKSLEWIGVKSVYYGITKYSQNFKDKATMTVDKSSSTAYMELARLTSEDSAIYYCARDSYGSSRGYFDYWGQGTTLTVSS
VL: DIKMTQSPSSIYVSPGERVTITCKASQDINSFLSWFQQKPGKSPKTLIYRANRLVDGVPSRFSGSGSGQDYSLTISSLEYEDMGIYYCLQYDEFPRTFGGGTKLEIK
modifications: SB7 heavy chain variable region; SB7 light chain variable region
B6: SB8: anti-CDCP1 antibody by single B cell technique; VH SEQ ID NO: 278, VL SEQ ID NO: 328 (antibody, V domains shown)
VH: QVTLKESGPGILKPSQTLSLTCSFSGFSLSTSGVGVGWIRQPSGKGLEWLAHIWWDDEKYYNPSLKSHFTISKDTSRNQVFLKITSVDTADTATYYCVKEGDGMDYWGQGTSVTVSS
VL: QAVVTQESALTTSPGETVTLTCRSSTGAVATSNYANWVQEKPDHLFTGLIGGTNNRVPGVPARFSGSLIGDKAALTITGAQTEDEAIYFCALWYSNHWVFGGGTKLTVL
modifications: SB8 heavy chain variable region; SB8 light chain variable region

system: MDA-MB-231 cells; experiment: Flow cytometry binding of single B cell antibodies to tumor cells (Geo-MFI); type: cell-based, human; details: antibody 1.5 μg/ml

Molecule | binding capacity to MDA-MB-231 cells (Geo-MFI, FIG. 2)
B1 | good binding capacity
B2 | good binding capacity
B3 | good binding capacity
B4 | good binding capacity
B5 | good binding capacity
B6 | good binding capacity
